Assay results published in the RepoRT retention time repository (doi:10.1021/acs.analchem.1c00972).

Assays:
[1] = RP, Waters ACQUITY UPLC BEH C18, 100 × 1 mm, 1.7 µm, 50 °C, 0.3 mL/min, estimated dead time 0.17 min; A: water + 10 mM ammonium bicarbonate; B: 10% water + 90% methanol + 10 mM ammonium bicarbonate; gradient (min/%B) 0/0 15/100 21/100 22/0 30/0; conditions: stereoisomer not certain
[2] = RP, Waters ACQUITY UPLC BEH C18, 100 × 1 mm, 1.7 µm, 50 °C, 0.3 mL/min, estimated dead time 0.17 min; A: water + 0.1% formic acid + 20 mM ammonium formate; B: methanol + 0.1% formic acid + 20 mM ammonium formate; gradient (min/%B) 0/0 15/100 21/100 22/0 30/0; conditions: stereoisomer not certain

CC(C)(C)c1ccc(O)cc1 [4-tert-Butylphenol]
LC retention time [1]: 14.4 min
LC retention time [2]: 10.8 min
